Test results: PubChem BioAssay AID504834 (National Center for Advancing Translational Sciences (NCATS), 2011)
Among all 320,000 compounds or so, about 22,000 (6.9%) were called active. Inconclusive means that the source gave no clear call. Such entries were picked first, then a sample of the others. The call rests on the fitted dose curve; in most records, active means well fitted inhibition curve with a large enough effect; inconclusive means small, poorly fitted or top-dose-only effect, or another doubt; inactive means no such curve, though single readings can be large or run the other way. Potencies beside an inconclusive call are fits to weak or partial responses and may not hold up.

experiment: Primary qHTS for delayed death inhibitors of the malarial parasite plastid, 96 hour incubation; settings: P. falciparum luciferase reporter growth; series mostly up to 28.7 µM; activity change, negative = inhibition: at the top concentration
In short: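 Luminescence readout: decreased luciferase signal marks inhibited growth of reporter-expressing P. falciparum in infected red cells (2% hematocrit, 0.05% parasitemia final), exposed to compound two generations (96 h, 37 C, 5% CO2).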
On the % scale 0 is the no-effect control and ±100 the full control effect; potency means the concentration at half of the fitted maximal effect.

Compound | Potency | activity change, negative = inhibition
Cn1ncc2c(Sc3ccc(Cl)cc3)ncnc21 | inconclusive: 11.7 µM [inhibitor, partial curve, poor fit] | –
CCCCNC(=O)N(O)C1N(/N=C/c2ccc(N(C)C)cc2)C(=S)SC1(C)C (stereo not given) | – | inactive: -22.9%
COC(=O)c1c(NC(=O)COC(=O)[C@@H](NS(=O)(=O)c2ccc(C)cc2)C(C)C)sc2c1CCC2 | inconclusive: 18.5 µM [inhibitor, single point] | –
COc1cccc(C(=O)Oc2c(Br)cc(Br)cc2/C=N/NC(=O)c2cc(C)[nH]n2)c1 | – | inactive: 4.21%
CC(NC(=O)Cc1cccs1)c1ccncc1 (stereo not given) | inconclusive: 14.7 µM [inhibitor, single point] | –
CCNC(=O)C(=O)NCCc1ccc(Cl)cc1 | inconclusive: 0.0041 µM [inhibitor, full curve, poor fit] | –
COC(=O)C1=C(c2ccc(C(C)=O)cc2)C[C@@H]2CC[C@H]1N2C(=O)NCc1ccc2c(c1)OCO2 | active: 3.29 µM | –
CC(C)Oc1ccc(NC(=O)Oc2ccccc2)cc1 | – | inactive: 68.4%
Cc1ccc(NC(=O)CN(C)C(=O)CSc2nnc(C(F)(F)F)n2C)cc1 | – | inactive: 45.6%
COc1cc(/C=N\NS(=O)(=O)c2ccccc2)cc(OC)c1OC | – | inactive: 122%
Cc1coc2cc3oc(=O)c(CCC(=O)NCCCn4ccnc4)c(C)c3cc12 | active: 10.4 µM | –
CCOc1ccc(/C=C/C(=O)N(CC)CC(=O)Nc2ccc3c(c2)OCCO3)cc1OC | inconclusive: 7.38 µM [inhibitor, partial curve, poor fit] | –
CCOC(=O)N1CCN(C(=O)c2ccc3c(c2)N=C(CC)c2cc(C)ccc2S3)CC1 | inconclusive: 5.22 µM [inhibitor, partial curve, poor fit] | –
Cc1cc(F)ccc1S(=O)(=O)Nc1ccccc1C(=O)Nc1ccccc1N1CCOCC1 | inconclusive: 0.329 µM [inhibitor, full curve, poor fit] | –
COc1ccc(-c2cn(/N=C/c3ccc(Cl)cc3Cl)c(N)n2)cc1 | inconclusive: 18.5 µM [inhibitor, single point] | –
O=C(CSc1cn(CC(=O)N2CCCC2)c2ccccc12)NCC1CCCO1 (stereo not given) | – | inactive: -0.182%
O=C(NCC(c1ccco1)N1CCCC1)c1cccc(S(=O)(=O)Nc2ccc(Br)cc2)c1 (stereo not given) | inconclusive: 10.4 µM [inhibitor, partial curve, poor fit] | –
CN(C)CCCN=Cc1c(-c2ccccc2)[nH]n(-c2nc3ccccc3s2)c1=O | inconclusive: 3.29 µM [inhibitor, partial curve, poor fit] | –
COC(=O)c1ccc(OC(=O)N2CCOCC2)cc1 | – | inactive: 3.04%
COc1ccc(NC(=O)c2ccc(S(=O)(=O)N(C)c3ccccc3)cc2)cn1 | inconclusive: 6.57 µM [inhibitor, partial curve] | –
CCCCOc1ccccc1NC(=O)c1scc2c1OCCO2 | inconclusive: 14.7 µM [inhibitor, single point] | –
CN(C)S(=O)(=O)c1cccc(NC(=S)Nc2ccc3cn[nH]c3c2)c1 | – | inactive: -1.6%
CN(/C=C1/C(=O)CNC1=O)CCO | – | inactive: -4.2%

Compound | Potency | activity change, negative = inhibition
COc1ccc(/C=N/Nc2cc(C)nc3ccc(Br)cc23)cc1 | active: 0.465 µM | –
CN1CCN(C(=O)c2cc(Cl)ccc2NC(=O)c2ccc(Cl)cc2Cl)CC1 | inconclusive: 4.65 µM [inhibitor, partial curve] | –
OCCCc1cn(-c2ccccc2)c2ccccc12 | inconclusive: 7.38 µM [inhibitor, partial curve, poor fit] | –
COC(=O)c1ccc(/C=N/NC(=S)NC(C)C)cc1 | inconclusive: 0.0165 µM [inhibitor, full curve, poor fit] | –
CC(C)(C)c1ccc(S(=O)(=O)N2CCC(O)(c3ccc(Cl)cc3)CC2)cc1 | inconclusive: 14.7 µM [inhibitor, partial curve, poor fit] | –
CN(CCC1CCCCO1)Cc1cn(C)nc1-c1ccc2c(c1)OCCO2 (stereo not given) | – | inactive: 2.86%
CC1(C)CC(=O)C(/C=N/n2cnc3ccccc3c2=O)=C(O)C1 | inconclusive: 14.7 µM [inhibitor, partial curve, poor fit] | –
O=C(c1ccco1)N1CCN(Cc2cc(=O)c(OCc3ccccc3F)co2)CC1 | inconclusive: 8.28 µM [inhibitor, partial curve] | –
CC(CNC(=O)CCS(=O)(=O)c1cc2c(cc1Cl)NC(=O)CO2)c1ccccc1 (stereo not given) | inconclusive: 13.1 µM [inhibitor, single point] | –
CN1/C(=C\C(=O)c2cccnc2)C(C)(C)c2ccccc21 | inconclusive: 18.5 µM [inhibitor, single point] | –
CC(=O)N/N=C(\C)CCc1ccccc1 | – | inactive: -6.35%
N=c1n(CCOc2ccccc2)c2ccccc2n1CCN1CCOCC1 | inconclusive: 2.62 µM [inhibitor, single point] | –
CCCCNC(=O)CS(=O)Cc1nc(-c2cccs2)oc1C (stereo not given) | active: 8.28 µM | –
COc1cccc(N2C(=O)C(c3ccccc3)=C(c3nc4ccccc4s3)C2NC(C)=O)c1 (stereo not given) | inconclusive: 11.7 µM [inhibitor, single point] | –
CCC(Cc1ccccc1)NC(=O)C1CC1 (stereo not given) | inconclusive: 18.5 µM [inhibitor, single point] | –
CCN(CC)S(=O)(=O)c1ccc2oc(SCC(=O)NCc3ccccc3)nc2c1 | inconclusive: 18.5 µM [inhibitor, single point] | –
COc1ccc(CNCC(O)(c2ccc(F)cc2)c2ccc(F)cc2)cc1OC | active: 2.94 µM | –
CCCCc1nnc(NC(=O)CCS(=O)(=O)c2ccc(C)cc2)s1 | inconclusive: 14.7 µM [inhibitor, single point] | –
CCCCC(=O)NC(=O)NC(c1ccccc1)c1ccccc1 | inconclusive: 9.28 µM [inhibitor, partial curve] | –
CCCCCCc1cc2cc(C(=O)NC)c(=N)oc2cc1O | – | inactive: 23.6%
COc1ccc(CC(=O)Oc2ccccc2C)cc1 | inconclusive: 18.5 µM [inhibitor, single point] | –
Cc1ccccc1NC(=O)CSc1ccc2nnc(-c3ccccn3)n2n1 | inconclusive: 18.5 µM [inhibitor, single point] | –

Shown with each value named: entries from further up.
CC(C)(C)c1ccc(S(=O)(=O)N2CCC(O)(c3ccc(Cl)cc3)CC2)cc1
  Potency: inconclusive: 14.7 µM [inhibitor, partial curve, poor fit]
N=c1n(CCOc2ccccc2)c2ccccc2n1CCN1CCOCC1
  Potency: inconclusive: 2.62 µM [inhibitor, single point]
CCN(CC)S(=O)(=O)c1ccc2oc(SCC(=O)NCc3ccccc3)nc2c1
  Potency: inconclusive: 18.5 µM [inhibitor, single point]
